{"source": "PubChem BioAssay AID504834", "about": "(National Center for Advancing Translational Sciences (NCATS), 2011)", "note": "Hit rate of the full screen: of about 320,000 compounds, about 22,000 (6.9%) were called active. This list was built around the results that the source calls inconclusive (neither active nor inactive); the mix of calls is not that of the screen. The call rests on the fitted dose curve; in most records, active means well fitted inhibition curve with a large enough effect; inconclusive means small, poorly fitted or top-dose-only effect, or another doubt; inactive means no such curve, though single readings can be large or run the other way. Potencies of inconclusive entries are doubtful fits and often do not repeat. Potency means the concentration at half of the fitted maximal effect.", "data": [{"assay": "Primary qHTS for delayed death inhibitors of the malarial parasite plastid, 96 hour incubation", "conditions": "P. falciparum luciferase reporter growth; series mostly up to 28.7 µM", "how_it_was_run": "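Readout is luminescence from an integrated firefly luciferase in P. falciparum. Red cells, 2% hematocrit and 0.05% parasitemia final, were cultured with compound through two parasite generations (96 hours) at 37 C, 5% CO2.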", "values": [{"smiles": "N/C(=N\\OC(=O)Cc1ccccc1)c1ccc([N+](=O)[O-])cc1", "Potency": "inactive"}, {"smiles": "Cc1[nH]c2ccccc2c1/C=N/Nc1ccccn1", "Potency": "active: 10.4 µM"}, {"smiles": "O=C(CCN1C(=O)S/C(=C\\c2ccccc2)C1=O)Nc1ccc(S(=O)(=O)Nc2nccs2)cc1", "Potency": "inconclusive: 18.5 µM [inhibitor, single point]"}, {"smiles": "Cc1cccc(N(Cc2ccccc2)C(=O)c2ccccc2F)c1", "Potency": "inactive"}, {"smiles": "COc1cc(NS(=O)(=O)c2ccc(Nc3nc(-c4cccc([N+](=O)[O-])c4)cs3)cc2)nc(OC)n1", "Potency": "inconclusive: 18.5 µM [inhibitor, single point]"}, {"smiles": "Cc1cc(OCC(=O)NCC2CCC(C(=O)O)CC2)c2c(C)c(Cc3ccccc3)c(=O)oc2c1", "note": "(stereo not drawn)", "Potency": "active: 3.29 µM"}, {"smiles": "CCn1ccnc1C(O)c1cccc2ccccc12", "note": "(stereo not drawn)", "Potency": "inconclusive: 0.0329 µM [inhibitor, full curve, poor fit]"}, {"smiles": "O=C(CC1SC(=Nc2ccccc2)N(CCc2c[nH]c3ccccc23)C1=O)Nc1ccccc1F", "note": "(stereo not drawn)", "Potency": "inconclusive: 18.5 µM [inhibitor, single point]"}, {"smiles": "c1ccn2cc(-c3ccc4c(c3)OCCO4)nc2c1", "Potency": "inactive"}, {"smiles": "COc1ccc(S(=O)(=O)Nc2ccc3cn[nH]c3c2)cc1[N+](=O)[O-]", "Potency": "inconclusive: 18.5 µM [inhibitor, single point]"}, {"smiles": "CC(=O)Nc1ccc(S(=O)(=O)N2CCN(CCCOc3ccccc3Cl)CC2)cc1", "Potency": "active: 6.57 µM"}, {"smiles": "O=C(O)CCNC(=O)c1ccc(NC(=O)Cc2ccc(Cl)cc2)cc1", "Potency": "inconclusive: 18.5 µM [inhibitor, single point]"}, {"smiles": "CCCNc1nc2c(c(=O)n(C)c(=O)n2C)n1Cc1ccc(F)cc1", "Potency": "inactive"}, {"smiles": "CC(C)(C)C(=O)N(CCN(C(=O)C(C)(C)C)c1ccccc1)c1ccccc1", "Potency": "inconclusive: 18.5 µM [inhibitor, single point]"}, {"smiles": "COc1ccc(-n2c(Cc3cccn3C)nnc2SCC(=O)Nc2ccc(F)cc2)cc1", "Potency": "inconclusive: 10.4 µM [inhibitor, single point]"}, {"smiles": "O=C(CCc1nc(-c2ccccc2)no1)NCCc1ccccc1", "Potency": "inactive"}, {"smiles": "CCc1cccc(NC(=O)CCCCCC2NC(=O)NC2C)c1", "note": "(stereo not drawn)", "Potency": "inconclusive: 10.4 µM [inhibitor, single point]"}, {"smiles": "O=S(=O)(Nc1ccccc1N1CCCCC1)c1ccc(F)cc1", "Potency": "inconclusive: 9.28 µM [inhibitor, single point]"}, {"smiles": "Cn1c(SCC(=O)Nc2ccccc2Br)nnc1-c1cnccn1", "Potency": "inconclusive: 18.5 µM [inhibitor, single point]"}, {"smiles": "CCCN1C(=O)CSC1=Nc1ccccc1", "Potency": "inconclusive: 2.33 µM [inhibitor, full curve, poor fit]"}, {"smiles": "O=C(Nc1cccc(F)c1)c1cc(S(=O)(=O)N2CCOCC2)ccc1N1CCCC1", "Potency": "inconclusive: 11.7 µM [inhibitor, single point]"}, {"smiles": "CNC(=O)c1ccsc1NC(=O)c1ccc2c(c1)CCCC2", "Potency": "inactive"}, {"smiles": "O=C1NC(CCc2ccccc2)C(=O)N1CCOc1ccccc1", "note": "(stereo not drawn)", "Potency": "inactive"}, {"smiles": "Cc1ccc(C(OCCN(C)C)c2cccc(C(F)(F)F)c2)cc1", "note": "(stereo not drawn)", "Potency": "inconclusive: 18.5 µM [inhibitor, single point]"}, {"smiles": "O=C(NC(=S)NN1CCCCC1c1cccnc1)c1ccc(Br)cc1", "note": "(stereo not drawn)", "Potency": "inconclusive: 8.28 µM [inhibitor, partial curve]"}, {"smiles": "CCc1ccc(CN2CCC(Oc3ccc(C(=O)N4CCCCC4)cc3)CC2)cc1", "Potency": "inconclusive: 18.5 µM [inhibitor, single point]"}, {"smiles": "COc1ccc(-c2nc3ccccc3n2OC(=O)N(C)C)cc1", "Potency": "inconclusive: 9.28 µM [inhibitor, single point]"}, {"smiles": "N#Cc1cnc(SCC(=O)NNC(=O)COc2cccc3ccccc23)nc1N", "Potency": "inconclusive: 18.5 µM [inhibitor, single point]"}, {"smiles": "CCc1ccc(NC(=O)CSc2nnc(CNC(=O)c3ccco3)o2)cc1", "Potency": "inconclusive: 5.86 µM [inhibitor, partial curve]"}, {"smiles": "Cc1cccc(-n2nnnc2SCC(=O)c2cc(C)n(Cc3ccco3)c2C)c1", "Potency": "inconclusive: 18.5 µM [inhibitor, single point]"}, {"smiles": "CCOC(=O)/C=C/C(=O)Nc1ccc(-c2nnc3n2CCCCC3)cc1", "Potency": "active: 0.329 µM"}, {"smiles": "NC(=O)CSc1nnc(-c2cccc(S(=O)(=O)N3CCCCC3)c2)o1", "Potency": "inconclusive: 2.33 µM [inhibitor, partial curve]"}, {"smiles": "NS(=O)(=O)c1ccc(N/N=C2/CCCc3ccccc32)c([N+](=O)[O-])c1", "Potency": "inconclusive: 0.738 µM [inhibitor, partial curve]"}, {"smiles": "C/C=C(\\C)CN1CCC(n2nccc2NC(=O)CCc2ccccc2)CC1", "Potency": "inconclusive: 18.5 µM [inhibitor, single point]"}, {"smiles": "COc1ccc(O)c(CN2CCN(CCc3ccccc3)C(CCO)C2)c1", "note": "(stereo not drawn)", "Potency": "inconclusive: 9.28 µM [inhibitor, single point]"}, {"smiles": "Cc1[nH]c2ccccc2c1/C=N/Nc1ccc(F)cc1F", "Potency": "inconclusive: 14.7 µM [inhibitor, single point]"}, {"smiles": "CC1CCCCN1CCNC(=O)Cn1nc(-c2ccccc2)ccc1=O", "note": "(stereo not drawn)", "Potency": "inconclusive: 18.5 µM [inhibitor, single point]"}, {"smiles": "Cc1c(C)n(CC(O)CNCCO)c2ccccc12", "note": "(stereo not drawn)", "Potency": "inactive"}, {"smiles": "CC1CCN(S(=O)(=O)c2ccc3c(c2)C(=NO)c2cc(S(=O)(=O)N4CCC(C)CC4)ccc2-3)CC1", "Potency": "active: 5.86 µM"}, {"smiles": "CC1=C(C(=O)OCc2ccccc2)C(c2ccccc2)NC(=O)N1CCCCCC(=O)O", "note": "(stereo not drawn)", "Potency": "inconclusive: 10.4 µM [inhibitor, single point]"}, {"smiles": "CC(=O)NC1(NC(C)=O)CCN(C)C(c2ccccc2)C1C", "note": "(stereo not drawn)", "Potency": "inconclusive: 1.31 µM [inhibitor, partial curve, poor fit]"}, {"smiles": "COc1cc(/C=C2/SC(=S)N(C)C2=O)ccc1OC(=O)c1ccco1", "Potency": "inconclusive: 16.5 µM [inhibitor, single point]"}, {"smiles": "CC(C)C[C@H](NC(=O)c1nc[nH]c1C(=O)NCCCCCNC(=O)OC(C)(C)C)C(=O)OC(C)(C)C", "Potency": "inconclusive: 4.65 µM [inhibitor, partial curve, poor fit]"}]}]}
